For one compound, logD and octanol/water partition coefficient results are on record in patent US20220280437A1, “FORMULATION” (priority 2019, published 2022).

The data set can be described thus: physchem. The class given is physicochemical. The conditions noted are these: pH 7. On the procedure:
Note that, in the present invention, the octanol/water partition coefficient is determined based on active ingredient concentration of each phase by adding an active ingredient to a flask containing octanol and an aqueous buffer of pH 7, then shaking the flask, and determining the concentration. Specifically, it can be determined by calculation using an equation: Octanol/water partition coefficient=Log10 (concentration in octanol phase/concentration in aqueous phase).

Counter-ions that a name gives are not always drawn.

One may read the logD as the decadic logarithm of the distribution of all forms, ionised or not, between an organic phase and buffer at a given pH. The low end stands for lower lipophilicity, the high end for higher lipophilicity. The compound `COc1cc2c(cc1OC)C(=O)C(CC1CCN(Cc3ccccc3)CC1)C2` (centres unmarked) [donepezil hydrochloride] displayed a logD of 4.3 and an octanol/water partition coefficient of 4.3.
